Measured data: PubChem BioAssay AID652243 (Drosophila RNAi Screening Center, 2013)
Aim: 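Fly regulators of androgen-dependent reporter output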 (primary screen). Cell system: Drosophila S2R+ cells. Knock-down reagent: long dsRNA against Drosophila genes. Time to read-out: 72 h (48 h, then 24 h hormone). Conditions: synthetic androgen R1881 at 10 nM for 24 h. Detection: 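Per-well raw luminescence of the androgen-driven firefly reporter and of the Renilla control, two replicates each, without normalisation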. Reading the numbers: firefly reporter light: higher = more light from androgen-responsive reporter; Renilla control light: higher = more constitutive control signal (cell number, transfection). Active means: 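Across duplicate plates, a knock-down whose log firefly/Renilla ratio shifted a set fold down or up from the GFP/LacZ control mean was a hit; the downward cut appears as both 1.5 and 3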. Meaning of the calls: active = hit: reporter lowered or raised; inactive = no hit.
The screen tested about 24,000 reagents; shown is a random part of those that have a named target and a result. Of all reagents, 246 (1%) got an active call. 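Plates not normalised; calls are printed but the firefly/Renilla ratio behind them is not deposited; fold cut for lowering reported inconsistently.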 The raw values are shown without normalisation. Entries without a mark were called inactive. Names joined by + are all predicted targets of the reagent. Not stated in the record: the amount of reagent.

Gene | DRSC id | firefly reporter light, replicate 1 | firefly reporter light, replicate 2 | Renilla control light, replicate 1 | Renilla control light, replicate 2
CG1806 | DRSC19787 | 1.14e5 | 1.11e5 | 8.65e5 | 7.54e5
CG13837 | DRSC14687 | 1.55e5 | 2.32e5 | 2.48e6 | 2.58e6
CG11127 | DRSC06043 | 1.16e6 | 5.34e5 | 1.62e6 | 1.59e6
CG9259 | DRSC03174 | 1.69e5 | 1.37e5 | 1.66e6 | 1.09e6
CG3407 | DRSC00603 | 6.04e5 | 6.08e5 | 9.69e5 | 9.41e5
CG34034 | DRSC38815 | 1.21e6 | 1.00e6 | 2.15e6 | 1.96e6
ko | DRSC11893 | 2.16e5 | 2.65e5 | 1.93e6 | 1.95e6
ko | DRSC26598 | 2.38e5 | 2.87e5 | 6.16e5 | 6.21e5
wrd | DRSC16344 | 1.50e5 | 1.67e5 | 1.61e6 | 1.83e6
wrd | DRSC23189 | 7.59e5 | 7.56e5 | 1.43e6 | 1.74e6
wrd | DRSC25929 | 3.28e5 | 3.56e5 | 1.11e6 | 1.08e6
Abcd3 | DRSC19488 | 2.64e5 | 1.77e5 | 1.20e6 | 5.97e5
Abcd3 | DRSC29341 | 4.63e5 | 4.61e5 | 1.01e6 | 1.01e6
Elovl7 | DRSC15452 | 85247 | 84967 | 2.23e6 | 1.50e6
Elovl7 | DRSC21570 | 3.88e5 | 4.87e5 | 1.31e6 | 1.83e6
Elovl7 | DRSC25259 | 6.12e5 | 8.65e5 | 6.92e5 | 9.37e5
dmrt93B | DRSC15865 | 1.83e5 | 1.74e5 | 2.87e6 | 2.86e6
dmrt93B | DRSC29931 | 6.13e5 | 3.90e5 | 1.08e6 | 1.25e6
AstA-R1 | DRSC17278 | 6.45e5 | 7.60e5 | 1.37e6 | 9.56e5
AstA-R1 | DRSC17727 | 7.57e5 | 7.70e5 | 6.03e6 | 5.31e6
xmas | DRSC21306 | 1.39e5 | 2.79e5 | 5.34e5 | 6.12e5
xmas | DRSC22178 | 5.41e5 | 4.76e5 | 9.70e5 | 8.29e5
CG33752 | DRSC38874 | 1.05e6 | 7.48e5 | 1.83e6 | 1.19e6
CG6005 | DRSC15945 | 90476 | 88272 | 7.73e5 | 6.75e5
XNP | DRSC15594 | 72358 | 93637 | 4.49e5 | 4.98e5
XNP | DRSC27285 | 3.71e5 | 3.61e5 | 4.19e5 | 5.57e5
RpL28 + snoRNA:Me28S-C3351 | DRSC26182 | 3.77e5 | 3.81e5 | 4.81e5 | 2.82e5
H2.0 | DRSC03340 | 95888 | 62507 | 1.58e6 | 1.44e6
H2.0 | DRSC22555 | 9.63e5 | 8.13e5 | 9.96e5 | 8.91e5
CG5612 | DRSC15844 | 2.41e5 | 1.93e5 | 2.34e6 | 2.63e6
CG5418 | DRSC02857 | 2.21e5 | 1.91e5 | 1.81e6 | 2.28e6
CG5418 | DRSC25643 | 8.65e5 | 9.30e5 | 6.91e5 | 8.77e5
hec | DRSC19895 | 5.81e5 | 4.84e5 | 3.55e6 | 3.29e6
klhl10 | DRSC37921 | 8.18e5 | 7.84e5 | 1.55e6 | 1.45e6
klhl10 | DRSC38784 | 8.40e5 | 9.93e5 | 1.47e6 | 1.97e6
CG30278 | DRSC22787 | 7.81e5 | 1.03e6 | 1.71e6 | 2.48e6
Ent1 | DRSC00330 | 7.58e5 | 6.09e5 | 2.65e6 | 1.49e6
Haspin | DRSC37736 | 1.09e6 | 9.81e5 | 2.09e6 | 1.43e6
mgl | DRSC17800 | 4.84e5 | 4.78e5 | 3.30e6 | 3.62e6
mgl | DRSC17823 | 63034 | 87718 | 4.83e5 | 5.32e5
mgl | DRSC17859 | 2.54e5 | 2.56e5 | 3.19e6 | 4.16e6
mgl | DRSC23464 | 18031 | 11082 | 6090 | 6228
CG42342 | DRSC13165 | 1.37e5 | 1.42e5 | 2.87e5 | 2.66e5
CG42342 | DRSC15010 | 1.97e5 | 2.67e5 | 3.05e6 | 3.21e6
CG42342 | DRSC15011 | 2.17e5 | 2.64e5 | 3.08e6 | 3.08e6
CG42342 | DRSC15012 | 1.71e5 | 1.83e5 | 2.91e6 | 2.62e6
CG42342 | DRSC21791 | 4.30e5 | 5.30e5 | 6.91e5 | 6.60e5
CG42342 | DRSC22861 | 1.40e5 | 1.97e5 | 4.07e5 | 4.08e5
CG42342 | DRSC23112 | 5.38e5 | 5.06e5 | 6.26e5 | 6.58e5
CG42342 | DRSC24200 | 7.83e5 | 7.86e5 | 9.85e5 | 9.69e5
CG42342 | DRSC25912 | 4.13e5 | 4.41e5 | 1.28e6 | 8.81e5
CG42342 | DRSC28157 | 4.26e5 | 5.33e5 | 1.69e6 | 1.33e6
CG30196 | DRSC04156 | 4.25e5 | 3.86e5 | 2.47e6 | 2.11e6
RpL35A | DRSC12302 | 82821 | 84587 | 1.63e6 | 1.86e6
egh | DRSC18771 | 2.34e5 | 2.58e5 | 1.75e6 | 2.37e6
egh | DRSC29898 | 7.05e5 | 7.47e5 | 1.17e6 | 1.44e6
Dnah3 | DRSC08130 | 2.88e5 | 3.12e5 | 3.79e5 | 3.06e5
Dnah3 | DRSC08513 | 1.25e5 | 1.67e5 | 1.49e6 | 1.76e6
Dnah3 | DRSC28789 | 3.29e5 | 3.50e5 | 9.52e5 | 1.10e6

Part of the list above, reformatted:
{"Gene": "CG6005", "DRSC id": "DRSC15945", "firefly reporter light, replicate 1": 90476, "firefly reporter light, replicate 2": 88272, "Renilla control light, replicate 1": 7.73e5, "Renilla control light, replicate 2": 6.75e5}
{"Gene": "XNP", "DRSC id": "DRSC15594", "firefly reporter light, replicate 1": 72358, "firefly reporter light, replicate 2": 93637, "Renilla control light, replicate 1": 4.49e5, "Renilla control light, replicate 2": 4.98e5}
{"Gene": "XNP", "DRSC id": "DRSC27285", "firefly reporter light, replicate 1": 3.71e5, "firefly reporter light, replicate 2": 3.61e5, "Renilla control light, replicate 1": 4.19e5, "Renilla control light, replicate 2": 5.57e5}
